For at least one compound, name, drawing or mass did not settle the structure. Some entries share one result that the patent states for a list of compounds.
How the values were obtained:
[1] = system: vitamin D-induced artery calcification; experiment: mineral phosphate accumulation in acid demineralization extracts of thoracic aorta and carotid arteries, vitamin D plus warfarin; assay type: in vivo, rat
Description: Tissues were subsequently washed extensively with buffer and extracted with 1 ml of 10% formic acid for 24 h at room temperature, as described. Calcium levels in serum were determined colorimetrically using cresolphthalein complexone (Sigma) and phosphate levels in serum and in acid tissue extracts were determined calorimetrically as described (Zhu et al. (1994) Cardiology, 85: 370-377). Tissue sectioning and staining were carried out by Biomedical Testing Services, Inc., (San Diego, Calif.). The effect of bisphosphonates on artery calcification was first examined in rats in which artery calcification was induced by treatment with warfarin plus high doses of vitamin D. […] All animals were killed by exsanguination at 96 h. […] All animals were killed by exsanguination at 96 h after the first vitamin D dose. […] All animals were killed by exsanguination 96 h after the first vitamin D injection.

[2] = system: artery calcification in animals treated with vitamin D; experiment: von Kossa staining of arteries in rats treated with vitamin D without warfarin; assay type: in vivo, rat; conditions: 0.01 mg P/kg/day, 96 h, 4 animals
[3] = system: warfarin-induced artery calcification; experiment: artery calcification in rats treated with warfarin for 2 or 4 weeks; assay type: in vivo, rat; conditions: 0.01 mg P/kg/day; warfarin 2 weeks; the other two had one or two small foci
Description: Tissues were subsequently washed extensively with buffer and extracted with 1 ml of 10% formic acid for 24 h at room temperature, as described. Calcium levels in serum were determined colorimetrically using cresolphthalein complexone (Sigma) and phosphate levels in serum and in acid tissue extracts were determined calorimetrically as described (Zhu et al. (1994) Cardiology, 85: 370-377). Tissue sectioning and staining were carried out by Biomedical Testing Services, Inc., (San Diego, Calif.). The effect of bisphosphonates on artery calcification was also examined in rats treated with warfarin alone using procedures which have been described elsewhere (Price et al. (1998) Arterioscler. Thromb. Vasc. Biol. 18: 1400-1407).

[4] = system: arotinoid-induced bone resorption; conditions: cited from earlier work

With CCCCCN(C)CCC(O)(P(=O)(O)O)P(=O)(O)O [Ibandronate, (1-hydroxy-3-(methylpentylamino)propylidene)bis-phosphonate] the “dose to inhibit artery calcification by half, fold lower than dose to inhibit arotinoid-induced bone resorption by half” value ([1]; absolute parenteral dose) was 2- to 5 fold, the “level of mineral phosphate in extracts of thoracic aorta and carotid arteries vs control values” ([1]; two highest doses, 84 h) was “not significantly above control values” and the “von Kossa staining for mineral in the aorta and carotid arteries” value [2] was “completely eliminated all von Kossa staining”. The “animals with no evidence of calcification in their abdominal aorta” value [3] was “Two of the four”, the “Bone Resorption Dose for 50% inhibition” value ([4]; daily subcutaneous dose, arotinoid-induced bone resorption, male rats 200-230 g) was 0.001 mg P/kg/day and the “Bone Resorption Relative potency” value ([4]; relative antiresorption potency in the rat, etidronate = 1) was 10000.
